## Primary screen of a compound library

Sequences of proteins named here, by UniProt entry; tags and fusion partners are left off.
UniProt I6X8D2, whole entry: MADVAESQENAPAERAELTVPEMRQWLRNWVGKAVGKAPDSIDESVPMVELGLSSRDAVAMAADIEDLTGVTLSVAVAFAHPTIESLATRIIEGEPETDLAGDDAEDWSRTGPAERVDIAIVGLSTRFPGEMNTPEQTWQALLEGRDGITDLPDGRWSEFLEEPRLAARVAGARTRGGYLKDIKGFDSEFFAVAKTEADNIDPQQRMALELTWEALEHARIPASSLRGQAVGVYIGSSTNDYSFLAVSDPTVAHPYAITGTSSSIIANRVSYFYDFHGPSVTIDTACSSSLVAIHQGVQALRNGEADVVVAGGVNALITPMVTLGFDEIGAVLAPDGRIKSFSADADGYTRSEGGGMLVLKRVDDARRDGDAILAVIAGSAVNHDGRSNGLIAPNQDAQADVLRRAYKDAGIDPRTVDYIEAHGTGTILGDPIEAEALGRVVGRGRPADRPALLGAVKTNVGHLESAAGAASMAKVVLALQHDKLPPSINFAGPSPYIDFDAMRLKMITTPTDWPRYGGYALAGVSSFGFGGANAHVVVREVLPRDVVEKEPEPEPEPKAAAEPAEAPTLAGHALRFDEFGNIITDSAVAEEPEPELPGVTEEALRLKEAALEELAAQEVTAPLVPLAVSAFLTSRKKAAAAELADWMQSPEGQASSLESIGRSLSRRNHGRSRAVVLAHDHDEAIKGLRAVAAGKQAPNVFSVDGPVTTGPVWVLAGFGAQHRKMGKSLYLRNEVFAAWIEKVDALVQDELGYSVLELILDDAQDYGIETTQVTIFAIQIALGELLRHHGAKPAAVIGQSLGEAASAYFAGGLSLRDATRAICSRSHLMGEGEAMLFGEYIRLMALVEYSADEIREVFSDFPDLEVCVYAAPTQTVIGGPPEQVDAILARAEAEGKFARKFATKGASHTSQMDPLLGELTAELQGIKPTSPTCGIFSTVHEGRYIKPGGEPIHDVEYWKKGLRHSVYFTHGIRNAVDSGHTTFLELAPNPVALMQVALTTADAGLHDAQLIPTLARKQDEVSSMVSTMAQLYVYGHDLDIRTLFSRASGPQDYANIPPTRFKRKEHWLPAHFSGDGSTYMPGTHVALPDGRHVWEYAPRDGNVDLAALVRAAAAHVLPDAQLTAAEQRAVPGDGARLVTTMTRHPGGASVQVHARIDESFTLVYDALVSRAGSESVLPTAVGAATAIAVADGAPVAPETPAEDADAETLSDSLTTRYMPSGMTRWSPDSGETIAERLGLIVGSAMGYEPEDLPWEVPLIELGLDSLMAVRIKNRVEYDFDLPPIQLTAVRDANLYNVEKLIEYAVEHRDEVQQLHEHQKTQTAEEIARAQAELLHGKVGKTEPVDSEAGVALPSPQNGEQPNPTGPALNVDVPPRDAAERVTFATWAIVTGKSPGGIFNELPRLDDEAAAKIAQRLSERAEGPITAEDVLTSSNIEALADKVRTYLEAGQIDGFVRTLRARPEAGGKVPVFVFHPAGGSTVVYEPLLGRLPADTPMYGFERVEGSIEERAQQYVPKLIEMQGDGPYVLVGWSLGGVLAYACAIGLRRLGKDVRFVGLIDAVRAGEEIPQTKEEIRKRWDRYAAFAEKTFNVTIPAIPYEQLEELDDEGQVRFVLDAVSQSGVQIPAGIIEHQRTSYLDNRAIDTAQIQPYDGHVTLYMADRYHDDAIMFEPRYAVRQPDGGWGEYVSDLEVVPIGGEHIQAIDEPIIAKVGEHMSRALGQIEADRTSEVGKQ

Measurements from “University of Dundee, Small-Polar-MMV Screening Library” (2021), ChEMBL document CHEMBL3988442.

Toxoplasma: 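Assay of Toxoplasma gondii numbers, read through their beta-galactosidase reporter with a colour substrate. Concentration: 10 µM. The record gives no direction; the compounds picked for IC50 retests had high values, so higher reads as fewer parasites. Of about 67,000 compounds tested this way, about 260 (0.38%) reached 50% or more in at least one test.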
Pks13 thioesterase: 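Enzyme assay of the thioesterase domain of polyketide synthase 13; the read-out is not stated. Target: Polyketide synthase Pks13, Mycobacterium tuberculosis (UniProt I6X8D2). Concentration: 30 µM. Higher reads as stronger inhibition (inferred from which compounds were picked for retests). Of about 67,000 compounds tested this way, about 300 (0.46%) reached 50% or more in at least one test.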

Each number is a percent effect as filed.
The record does not define 0% and 100%; most values in the screen are far below 50% and negative numbers occur (in some assays of this library far below -100).
The compounds are a random part of those screened.
A dash means the value is not listed here; it may have been measured.

structure	Toxoplasma	Pks13 thioesterase
CC1(C(=O)N2CCSCC2)CNCCO1 (stereo not given)	-8.397	5.892
c1cc(CN2CCO[C@H]3[C@H](OCCN4CCCC4)CC[C@@H]32)ccn1	-	-11.43
Cc1c(C(C)NC2CCN(C(C)C)CC2)cnn1-c1ccc(F)cc1F (stereo not given)	6.907	-21.93
Cc1nc(CN2CCN(C(C)c3nc(C(C)C)no3)CC2)oc1C (stereo not given)	-8.259	-6.14
CCN1CCCC1CNCc1cc2cc3c(cc2[nH]c1=O)OCCO3 (stereo not given)	-	23.37
c1ccc2c(CC3CN(Cc4nccs4)CCO3)cccc2c1 (stereo not given)	-0.9281	-19.15
CCCS(=O)(=O)N1CCn2cc(CNc3ccccn3)nc2C1.O=C(O)C(F)(F)F	0.9852	-
O=C(c1ccc[nH]1)N1Cc2nccn2CC(COc2cccnc2)C1 (stereo not given)	-2.233	-41.5
O=C(COc1cccnc1)N1CCOC(C(F)(F)F)C1 (stereo not given)	-6.788	-
O=C(COC[C@@]12CCC[C@@H]1CN(C1CCCC1)C2)N1CCCC1	-	-7.016
O=C(NCCNC(=O)c1scnc1Cl)c1ccccc1Cl	-8.375	-16.04
Cc1cc(C(=O)N2CCCS2(=O)=O)c(C)o1	-16.1	-2.241
COC(=O)c1ccc(CNC2CC(=O)N(Cc3cccc(F)c3)C2)cc1 (stereo not given)	4.602	2.967
O=C(CNc1cc(-n2cnnn2)ccc1F)Nc1cc(F)ccc1F	11.74	-35.29
[H][C@]12CC[C@]([H])(CN(C3Cc4ccccc4C3)C1)N(C(=O)CO)C2	-2.499	-
O=C(NCCCNc1ccc(C(F)(F)F)cn1)c1ccccc1	-9.642	-11.54
COCCN(C)C[C@H]1C[C@H](CO)CN(C(=O)c2ccn(C)c(=O)c2)C1	0.09074	5.784
CN1[C@H](Cn2cncn2)C[C@@H]2CN(Cc3ccsc3)CC[C@@H]21	-	-16.25
CC(C)c1cc(C(=O)NCCn2nc3ccccn3c2=O)n[nH]1	5.499	-4.196
Cc1nsc(NC2CCN(c3ccccc3OC(F)F)C2=O)n1 (stereo not given)	2.462	14.4
[H][C@@]12CCCN1C[C@@H](CCSC)N(Cc1coc3ccc(Cl)cc3c1=O)C2	1.565	-
CC(O)CN1CCN(C(=O)c2ccn(-c3ccccc3Cl)n2)CC1 (stereo not given)	-20.09	-3.169
CC(=O)N1CCCC(c2ccc(N3CCN(C)CC3)cn2)C1 (stereo not given)	5.679	-16.97
CCOC(=O)N1CC2(CCNCC2)c2cc(Cl)ccc21.Cl	3.804	-
CCCn1cc(C(=O)NCCc2ccncc2)c(C)n1	-37.79	0.1956
c1cncc(CN2CCCC(Nc3ncnc4c3CCNCC4)C2)c1 (stereo not given)	1.252	-11.92
Cc1cc(-c2ccc(C(C)N3CCCCC3)cc2)cnc1N (stereo not given)	-3.329	-27.46
O=C(O)C(F)(F)F.[H][C@@]12CCN(Cc3ccc(C)o3)C[C@@]1([H])O[C@@H](c1nnc(C)[nH]1)C2	10.43	-
CC(NC(=O)N(C)Cc1ccsc1)c1ccc2c(c1)OCO2 (stereo not given)	-14.82	-11.5
CCN(Cc1cccnc1)C1CCN(c2ccccc2)C1=O (stereo not given)	9.294	-9.407
CCNC(=O)CN(CC)C(=O)c1cccc(Nc2cnn(C)c2)c1	4.656	-19.54
CC(C)n1cnnc1C1CCCN(S(=O)(=O)CC2CCCC2)C1 (stereo not given)	-0.8097	-2.186
CCCS(=O)(=O)N1CCC2(CC1)CN(c1ccccn1)CCO2.O=C(O)C(F)(F)F	-5.977	-
O=C([C@H]1CN(Cc2ccncc2)C[C@H]2OCC[C@@H]12)N1CCCCO1	-	-7.559
CCCc1nc(C)cc(NCc2ccc(S(N)(=O)=O)cc2)n1	-21.34	-12.93
O=C(c1ccc(-n2ccnc2)cc1)N1CCN(c2cnccn2)CC1	2.717	64.54
CCOC(=O)C1(NC(=O)CCNc2cc(C)ccc2OC)CCCCC1	-17.02	-6.868
Cc1ccnn1CCC(=O)N1CCCC[C@]2(C)NC(=O)CCC[C@H]12	-	-15.1
OCCN1CCC(CNCc2ccc(Br)cc2)CC1	15.98	-17.06
COc1ccc2nnc(CCC(=O)Nc3nc4c(s3)CCC4)n2n1	-15.06	-10.67

Some entries from above, unchanged:

- CC(=O)N1CCCC(c2ccc(N3CCN(C)CC3)cn2)C1 (stereo not given) : Toxoplasma: 5.679%; Pks13 thioesterase: -16.97%
- CC(C)c1cc(C(=O)NCCn2nc3ccccn3c2=O)n[nH]1 : Toxoplasma: 5.499%; Pks13 thioesterase: -4.196%
- Cc1nsc(NC2CCN(c3ccccc3OC(F)F)C2=O)n1 (stereo not given) : Toxoplasma: 2.462%; Pks13 thioesterase: 14.4%
- COc1ccc2nnc(CCC(=O)Nc3nc4c(s3)CCC4)n2n1 : Toxoplasma: -15.06%; Pks13 thioesterase: -10.67%